Reference: EP3033337B1, “SUBSTITUTED IMIDAZOLES AS N-TYPE CALCIUM CHANNEL BLOCKERS” (Janssen Pharmaceutica NV, priority 2013, dated 2015)
At least one read-out could not be matched to a standard name with certainty.

The chains behind the UniProt entries cited, without tags or fusion partners.
UniProt Q00975, whole entry: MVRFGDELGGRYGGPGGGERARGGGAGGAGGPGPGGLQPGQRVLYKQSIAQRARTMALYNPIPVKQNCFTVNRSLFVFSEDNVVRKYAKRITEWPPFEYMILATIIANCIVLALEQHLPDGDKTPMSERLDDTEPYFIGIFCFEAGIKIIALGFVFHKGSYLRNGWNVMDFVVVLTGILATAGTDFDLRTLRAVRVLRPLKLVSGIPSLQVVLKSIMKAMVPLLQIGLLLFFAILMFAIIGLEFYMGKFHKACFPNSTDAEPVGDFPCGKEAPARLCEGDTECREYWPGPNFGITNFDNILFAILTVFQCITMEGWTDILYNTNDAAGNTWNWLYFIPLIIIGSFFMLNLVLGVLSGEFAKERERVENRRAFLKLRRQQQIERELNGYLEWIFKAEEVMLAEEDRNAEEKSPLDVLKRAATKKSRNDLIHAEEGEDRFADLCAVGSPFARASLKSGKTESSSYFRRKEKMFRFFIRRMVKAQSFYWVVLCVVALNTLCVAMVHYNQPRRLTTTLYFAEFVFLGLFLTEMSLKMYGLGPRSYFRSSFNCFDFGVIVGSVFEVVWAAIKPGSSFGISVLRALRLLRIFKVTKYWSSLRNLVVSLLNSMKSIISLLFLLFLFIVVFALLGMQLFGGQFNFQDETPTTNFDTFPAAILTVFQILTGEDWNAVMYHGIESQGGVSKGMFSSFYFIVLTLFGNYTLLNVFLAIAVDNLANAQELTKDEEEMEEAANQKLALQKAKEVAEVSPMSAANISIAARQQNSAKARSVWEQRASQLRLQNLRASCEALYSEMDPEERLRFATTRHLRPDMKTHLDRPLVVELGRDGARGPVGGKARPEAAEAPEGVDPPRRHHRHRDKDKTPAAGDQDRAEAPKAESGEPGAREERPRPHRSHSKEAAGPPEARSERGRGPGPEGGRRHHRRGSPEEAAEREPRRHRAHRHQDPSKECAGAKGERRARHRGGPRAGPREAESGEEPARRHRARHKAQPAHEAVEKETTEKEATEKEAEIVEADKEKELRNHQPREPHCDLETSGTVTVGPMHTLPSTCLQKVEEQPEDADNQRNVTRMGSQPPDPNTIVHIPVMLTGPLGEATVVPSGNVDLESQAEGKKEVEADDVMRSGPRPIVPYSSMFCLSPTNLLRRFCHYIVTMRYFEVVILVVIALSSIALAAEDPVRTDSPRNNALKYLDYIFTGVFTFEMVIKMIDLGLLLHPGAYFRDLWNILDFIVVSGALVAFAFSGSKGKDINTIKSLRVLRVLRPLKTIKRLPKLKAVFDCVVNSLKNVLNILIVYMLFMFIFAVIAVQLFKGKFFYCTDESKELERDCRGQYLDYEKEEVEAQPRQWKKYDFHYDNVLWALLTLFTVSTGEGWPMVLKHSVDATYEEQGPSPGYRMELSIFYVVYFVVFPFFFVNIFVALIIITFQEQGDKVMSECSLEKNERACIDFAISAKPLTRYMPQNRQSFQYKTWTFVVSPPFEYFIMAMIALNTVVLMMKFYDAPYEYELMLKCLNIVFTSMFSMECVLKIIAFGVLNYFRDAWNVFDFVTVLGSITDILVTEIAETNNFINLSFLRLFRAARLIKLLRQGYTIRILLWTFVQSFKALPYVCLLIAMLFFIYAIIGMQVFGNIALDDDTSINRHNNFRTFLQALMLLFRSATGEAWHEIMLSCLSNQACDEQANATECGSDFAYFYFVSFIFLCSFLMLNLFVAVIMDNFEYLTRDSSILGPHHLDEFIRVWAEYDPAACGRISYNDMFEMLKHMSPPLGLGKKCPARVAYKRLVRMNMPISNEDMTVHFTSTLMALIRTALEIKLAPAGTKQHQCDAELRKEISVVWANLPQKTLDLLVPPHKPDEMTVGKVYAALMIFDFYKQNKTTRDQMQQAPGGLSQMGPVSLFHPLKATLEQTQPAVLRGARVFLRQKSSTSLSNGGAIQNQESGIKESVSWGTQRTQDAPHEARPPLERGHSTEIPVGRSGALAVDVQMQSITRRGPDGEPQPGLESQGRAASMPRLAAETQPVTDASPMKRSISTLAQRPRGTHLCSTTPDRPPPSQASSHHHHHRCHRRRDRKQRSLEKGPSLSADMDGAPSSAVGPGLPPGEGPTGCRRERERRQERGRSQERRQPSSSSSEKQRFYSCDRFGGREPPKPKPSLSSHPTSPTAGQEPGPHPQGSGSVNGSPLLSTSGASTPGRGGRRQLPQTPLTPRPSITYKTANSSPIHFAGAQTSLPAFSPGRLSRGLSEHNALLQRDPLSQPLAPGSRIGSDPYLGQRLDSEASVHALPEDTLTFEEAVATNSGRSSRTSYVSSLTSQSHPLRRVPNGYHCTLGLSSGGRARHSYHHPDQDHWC

Each molecule was assayed against human N-type Ca channel (Homo sapiens, UniProt Q00975) (assay: Electrophysiological response, QPatch (depolarization -80 mV to +20 mV)). Settings: Pulse=1; concentration range 0.01-1 µM.

SMILES	Qpatch Pulse=1 (percent inhibition)
COc1cc(-n2cc(C3CC(C)(C)OC(C)(C)C3)nc2-c2ccccc2OC)ccc1C#N [Compound 34, 2-methoxy-4-(2-(2-methoxyphenyl)-4-(2,2,6,6-tetramethyltetrahydro-2H-pyran-4-yl)-1H-imidazol-1-yl)benzonitrile]	38 % (0.01- 1 µM)
COc1ccc(-n2cc(C3CC(C)(C)OC(C)(C)C3)nc2-c2cccnc2OC)cc1C#N [Compound 85, 2-methoxy-5-(2-(2-methoxypyridin-3-yl)-4-(2,2,6,6-tetramethyltetrahydro-2H-pyran-4-yl)-1H-imidazol-1-yl)benzonitrile]	45 % (0.01- 1 µM)
COc1ccc(-n2cc(C3CC(C)(C)OC(C)(C)C3)nc2-c2cccnc2OC)cc1F [Compound 23, 3-(1-(3-fluoro-4-methoxyphenyl)-4-(2,2,6,6-tetramethyltetrahydro-2H-pyran-4-yl)-1H-imidazol-2-yl)-2-methoxypyridine]	21 % (0.01- 1 µM)
CC1(C)CC(c2cn(-c3ccc(Cl)cc3)c(CC3CC3)n2)CC(C)(C)O1 [Compound 55, 1-(4-chlorophenyl)-2-(cyclopropylmethyl)-4-(2,2,6,6-tetramethyltetrahydro-2H-pyran-4-yl)-1H-imidazole]	48 % (0.01- 1 µM)
COc1cc(-n2cc(C3CC(C)(C)OC(C)(C)C3)nc2-c2cccnc2OC)ccc1F [Compound 24, 3-(1-(4-fluoro-3-methoxyphenyl)-4-(2,2,6,6-tetramethyltetrahydro-2H-pyran-4-yl)-1H-imidazol-2-yl)-2-methoxypyridine]	29 % (0.01- 1 µM)
COc1ncccc1-c1nc(C2CC(C)(C)OC(C)(C)C2)cn1-c1ccc(C#N)c(Cl)c1 [Compound 78, 2-chloro-4-(2-(2-methoxypyridin-3-yl)-4-(2,2,6,6-tetramethyltetrahydro-2H-pyran-4-yl)-1H-imidazol-1-yl)benzonitrile]	58 % (0.01- 1 µM)
COc1ncccc1-c1nc(C2CC(C)(C)OC(C)(C)C2)cn1-c1ccc(Cl)c(C#N)c1 [Compound 84, 2-chloro-5-(2-(2-methoxypyridin-3-yl)-4-(2,2,6,6-tetramethyltetrahydro-2H-pyran-4-yl)-1H-imidazol-1-yl)benzonitrile]	39 % (0.01- 1 µM)
COc1ncccc1-c1nc(C2CC(C)(C)OC(C)(C)C2)cn1Cc1cccc(Cl)c1 [Compound 9, 3-(1-(3-chlorobenzyl)-4-(2,2,6,6-tetramethyltetrahydro-2H-pyran-4-yl)-1H-imidazol-2-yl)-2-methoxypyridine]	46 % (0.01-1 1 µM)
COc1ncncc1-c1nc(C2CC(C)(C)OC(C)(C)C2)cn1-c1ccc(C#N)cc1 [Compound 86, 4-(2-(4-methoxypyrimidin-5-yl)-4-(2,2,6,6-tetramethyltetrahydro-2H-pyran-4-yl)-1H-imidazol-1-yl)benzonitrile]	28 % (0.01-1 1 µM)

Same assay, conditions: Pulse=15; concentration range 0.01-1 µM

SMILES	Qpatch Pulse=15 (percent inhibition)
COc1ccccc1-c1nc(C2CC(C)(C)OC(C)(C)C2)cn1-c1ccc(C#N)c(C)c1 [Compound 21, 4-(2-(2-methoxyphenyl)-4-(2,2,6,6-tetramethyltetrahydro-2H-pyran-4-yl)-1H-imidazol-1-yl)-2-methylbenzonitrile]	39 % (0.01- 1 µM)
COc1ncccc1-c1nc(C2CC(C)(C)OC(C)(C)C2)cn1Cc1cccc(Cl)c1 [Compound 9, 3-(1-(3-chlorobenzyl)-4-(2,2,6,6-tetramethyltetrahydro-2H-pyran-4-yl)-1H-imidazol-2-yl)-2-methoxypyridine]	37 % (0.01- 1 µM)
